Experimental data: PubChem BioAssay AID330 (DTP/NCI, 2004)
The list is a part of this screen's results and no random one: it gathers tests that were run many times, whatever their T/C, doses with no T/C, and many T/C values between a quarter and a half above the control. Further doses and runs are listed elsewhere. T/C: endpoint of the treated group in % of that of the vehicle group. Some entries give survivors of the animals treated and no T/C: the source files T/C as zero there, which appears to mark a toxic dose or a test without result, not a measured value. Some survivor counts are full or nearly so, which does not show that the dose was tolerated: survival well below the control is almost never listed, so the zero probably covers shortened survival too. Counts of survivors are from the toxicity check (mostly the fifth day) where no day follows; animals may have died later. Schedule codes are those of the source, read here as Q, the interval in days (D) or hours (H), X, the number of doses. Some doses were run more than once; the results are listed from low to high. For survival time, the PubChem record calls one and a half times the control and up active, and a quarter to a half above the control has no call in these data; cut-offs in other NCI protocols can differ. Some T/C values are followed by the survivors on the day toxicity was checked, most often the fifth; where none is given, no animal had died by that day.

Test system: P388 leukemia ip, CD2F1 mice, survival T/C
Experiment: NCI In Vivo Anticancer Drug Screen. Data for tumor model P388 Leukemia (intraperitoneal) in CD2F1 (CDF1) mice
Conditions: T/C endpoint: median survival time, higher T/C = longer survival
[1] = dose: 100.0 mg/kg/injection, schedule: Q01DX009 (ip), vehicle: Klucel (hydroxypropylcellulose) (HPC)
[2] = dose: 200.0 mg/kg/injection, schedule: Q01DX009 (ip), vehicle: Klucel (hydroxypropylcellulose) (HPC)
[3] = dose: 25.0 mg/kg/injection, schedule: Q01DX005 (ip), vehicle: Klucel (hydroxypropylcellulose) (HPC)
[4] = dose: 50.0 mg/kg/injection, schedule: Q01DX005 (ip), vehicle: Klucel (hydroxypropylcellulose) (HPC)
[5] = dose: 100.0 mg/kg/injection, schedule: Q01DX005 (ip), vehicle: Klucel (hydroxypropylcellulose) (HPC)
[6] = dose: 200.0 mg/kg/injection, schedule: Q01DX005 (ip), vehicle: Klucel (hydroxypropylcellulose) (HPC)
[7] = dose: 50.0 mg/kg/injection, schedule: Q01DX005 (ip), vehicle: saline with Tween-80
[8] = dose: 200.0 mg/kg/injection, schedule: Q01DX005 (ip), vehicle: saline with Tween-80
[9] = dose: 240.0 mg/kg/injection, schedule: Q01DX005 (ip), vehicle: saline with Tween-80

What does the source list for NC(=O)Oc1cccc(OC(N)=O)c1?
T/C (dose: 100.0 mg/kg/injection, schedule: Q04DX003 (ip), vehicle: other): 135 % of control; survivor count (dose: 400.0 mg/kg/injection, schedule: Q01DX009 (ip), vehicle: other): 5 of 6; T/C (dose: 400.0 mg/kg/injection, schedule: Q04DX003 (ip), vehicle: other): 135 % of control

How did the T/C (dose: 200.0 mg/kg/injection, schedule: Q01DX009 (ip), vehicle: acetone) turn out when CCCCCCCCSCc1ccc(Nc2ccc(Nc3ccc(CSCCCCCCCC)cc3)cc2)cc1 was run?
The T/C was 136 % of control.

With CCCCCCCCCCCCCC[N+](C)([O-])CCCCCC[N+](C)([O-])CCCCCCCCCCCCCC (stereo unspecified) as the molecule, how does the survivor count [1] read?
The survivor count was 0 of 6.

And the survivor count [2]?
The survivor count was 0 of 6.

For CNC(=O)Oc1[nH]c(=O)ncc1I, which T/C (dose: 200.0 mg/kg/injection, schedule: Q04DX002 (ip), vehicle: saline with Tween-80) is on record?
Its T/C is 131 % of control [5 of 6 alive].

And the survivor count (dose: 400.0 mg/kg/injection, schedule: Q04DX002 (ip), vehicle: saline with Tween-80)?
The survivor count was 0 of 6 and 3 of 6.

[Br][Sn]([Br])([CH2][Sn]([Br])([c]1ccccc1)[c]1ccccc1)[c]1ccccc1 was tested. Which T/C [3] did it give?
Its T/C is 139 % of control.

What about the T/C [4] of the same molecule?
Its T/C is 125 % of control.

What about the survivor count [4] of the same molecule?
Its survivor count is 5 of 6.

And the T/C [5]?
The T/C was 125 % of control [5 of 6 alive].

What about the survivor count [5] of the same molecule?
Its survivor count is 2 of 6.

What about the survivor count [6] of the same molecule?
The survivor count was 5 of 6.

Which results are given for Cc1c2ccn3c(=O)c4ccccc4cc3c2c(C)c2c1[nH]c1ccccc12?
survivor count (dose: 3.13 mg/kg/injection, schedule: Q04DX003 (ip), vehicle: distilled water + Tween-80): 6 of 6; survivor count (dose: 6.25 mg/kg/injection, schedule: Q04DX003 (ip), vehicle: distilled water + Tween-80): 6 of 6; survivor count (dose: 12.5 mg/kg/injection, schedule: Q04DX003 (ip), vehicle: distilled water + Tween-80): 6 of 6; survivor count (dose: 25.0 mg/kg/injection, schedule: Q04DX003 (ip), vehicle: distilled water + Tween-80): 5 of 6; survivor count (dose: 50.0 mg/kg/injection, schedule: Q04DX003 (ip), vehicle: distilled water + Tween-80): 6 of 6; survivor count (dose: 100.0 mg/kg/injection, schedule: Q04DX003 (ip), vehicle: distilled water + Tween-80): 5 of 6

CC(C)c1cc(C(=O)O)c(O)c(C(C)C)c1.CC(C)c1cc(C(=O)O)c(O)c(C(C)C)c1.[Cu] was tested. Which survivor count [7] did it give?
The survivor count was 0 of 6.

What about the survivor count (dose: 100.0 mg/kg/injection, schedule: Q01DX005 (ip), vehicle: saline with Tween-80) of the same molecule?
Its survivor count is 0 of 6.

What about the survivor count [8] of the same molecule?
The survivor count was 0 of 6.

For CCN(CC)CCNc1ccc(C)c2sc3ccccc3c(=O)c12 (tested in a mixture with another compound), which T/C (dose: 132.0 mg/kg/injection, schedule: Q04DX003 (ip), vehicle: saline) is on record?
Its T/C is 142 % of control [5 of 6 alive].

What about the survivor count (dose: 200.0 mg/kg/injection, schedule: Q01DX009 (ip), vehicle: saline) of the same molecule?
Its survivor count is 3 of 6.

Which results are given for N#Cc1cc([N+](=O)[O-])cnc1Sc1ncccn1?
survivor count (dose: 50.0 mg/kg/injection, schedule: Q01DX009 (ip), vehicle: Klucel (hydroxypropylcellulose) (HPC)): 4 of 6; survivor count [1]: 0 of 6; survivor count [2]: 0 of 6

How did the survivor count (dose: 400.0 mg/kg/injection, schedule: Q01DX001 (ip), vehicle: Klucel (hydroxypropylcellulose) (HPC)) turn out when Cc1ccc(S(=O)(=O)NCC(CNS(=O)(=O)c2ccc(C)cc2)C(C)(C)C)cc1 was run?
The survivor count was 6 of 6.

With CC(CC(=O)c1ccccc1)=NCCCCN=C(C)CC(=O)c1ccccc1 as the molecule, how does the survivor count (dose: 100.0 mg/kg/injection, schedule: Q04DX003 (ip), vehicle: saline with Tween-80) read?
Its survivor count is 6 of 6.

What about the survivor count (dose: 200.0 mg/kg/injection, schedule: Q04DX003 (ip), vehicle: saline with Tween-80) of the same molecule?
The survivor count was 6 of 6.

What about the survivor count (dose: 400.0 mg/kg/injection, schedule: Q04DX003 (ip), vehicle: saline with Tween-80) of the same molecule?
Its survivor count is 5 of 6.

How did the survivor count [9] turn out when CC(CN(C)C)C(/C=C/c1ccc(F)cc1)=N\Nc1ccccc1 (stereo unspecified) was run?
Its survivor count is 0 of 6.

What does the source list for CCC[CH2][Sn]([Cl])([Cl])[CH2]CCC?
T/C (dose: 3.0 mg/kg/injection, schedule: Q01DX009 (ip), vehicle: saline with Tween-80): 126 % of control [5 of 6 alive]; T/C (dose: 25.0 mg/kg/injection, schedule: Q04DX003 (ip), vehicle: suspension in saline): 141 % of control [5 of 6 alive]; survivor count (dose: 50.0 mg/kg/injection, schedule: Q04DX003 (ip), vehicle: suspension in saline): 0 of 6; survivor count (dose: 100.0 mg/kg/injection, schedule: Q04DX003 (ip), vehicle: suspension in saline): 0 of 6; T/C (dose: 200.0 mg/kg/injection, schedule: Q04DX003 (ip), vehicle: saline): 125 % of control; survivor count (dose: 200.0 mg/kg/injection, schedule: Q04DX003 (ip), vehicle: suspension in saline): 0 of 6; survivor count (dose: 400.0 mg/kg/injection, schedule: Q04DX003 (ip), vehicle: saline): 4 of 6

What does the source list for N#Cc1ccc(NN=O)cc1?
T/C (dose: 25.0 mg/kg/injection, schedule: Q01DX009 (ip), vehicle: water): 129 % of control; T/C (dose: 50.0 mg/kg/injection, schedule: Q01DX009 (ip), vehicle: water): 126 and 133 % of control; survivor count (dose: 200.0 mg/kg/injection, schedule: Q01DX009 (ip), vehicle: water): 0 of 6

CCOC(=O)Nc1cc2c(c(N)n1)N=C(c1ccc(C)cc1)CN2 was tested. Which T/C (dose: 12.0 mg/kg/injection, schedule: Q01DX005 (ip), vehicle: saline with Tween-80) did it give?
The T/C was 130 % of control.

What about the T/C (dose: 12.5 mg/kg/injection, schedule: Q01DX005 (ip), vehicle: saline with Tween-80) of the same molecule?
Its T/C is 133 % of control.

What about the survivor count (dose: 25.0 mg/kg/injection, schedule: Q01DX005 (ip), vehicle: saline with Tween-80) of the same molecule?
Its survivor count is 5 of 5.

What about the survivor count [7] of the same molecule?
The survivor count was 5 of 5.

With CC(=O)OC1CC(C)OC(OC2CCC3(C=O)C4C(O)C(=O)[C@]5(C)C(c6ccc(=O)oc6)CC[C@]5(O)C4CC[C@]3(O)C2)C1OC(C)=O (stereo partly specified) as the molecule, how does the survivor count (dose: 5.68 mg/kg/injection, schedule: Q01DX009 (ip), vehicle: distilled water + Tween-80 + alcohol) read?
The survivor count was 3 of 4.

For O=C1C(c2ccccc2)=C(c2ccccc2)/C1=C\c1ccc(Cl)cc1Cl, which survivor count [2] is on record?
Its survivor count is 6 of 6.

How did the survivor count [3] turn out when CCCCc1ccc2nccc(N/N=C/c3ccc(OC)c4ccccc34)c2c1 was run?
The survivor count was 6 of 6.

And the survivor count [4]?
The survivor count was 6 of 6.

What about the survivor count [5] of the same molecule?
Its survivor count is 6 of 6.

What about the survivor count [6] of the same molecule?
Its survivor count is 1 of 6.

With COC(=O)CC1(O)C=CC(=O)c2ccccc21 (stereo unspecified) as the molecule, how does the survivor count [8] read?
Its survivor count is 3 of 6.

With Oc1ccc(Nc2ccc(N(CCCl)CCCl)cc2)c2ccccc12 as the molecule, how does the T/C (dose: 12.5 mg/kg/injection, schedule: Q01DX001 (ip), vehicle: Klucel (hydroxypropylcellulose) (HPC)) read?
Its T/C is 132 % of control.

What about the T/C (dose: 25.0 mg/kg/injection, schedule: Q01DX001 (ip), vehicle: Klucel (hydroxypropylcellulose) (HPC)) of the same molecule?
Its T/C is 139 % of control [5 of 6 alive].

What about the survivor count (dose: 100.0 mg/kg/injection, schedule: Q01DX001 (ip), vehicle: Klucel (hydroxypropylcellulose) (HPC)) of the same molecule?
Its survivor count is 3 of 6.

And the survivor count (dose: 200.0 mg/kg/injection, schedule: Q01DX001 (ip), vehicle: Klucel (hydroxypropylcellulose) (HPC))?
Its survivor count is 5 of 6.

For CC(=O)Nc1nc(C)c(CCCNS(=O)(=O)c2ccc([N+](=O)[O-])cc2)c(=O)[nH]1, which survivor count (dose: 120.0 mg/kg/injection, schedule: Q01DX005 (ip), vehicle: saline with Tween-80) is on record?
The survivor count was 6 of 6.

What about the survivor count [9] of the same molecule?
Its survivor count is 6 of 6.

Which survivor count (dose: 120.0 mg/kg/injection, schedule: Q01DX005 (ip), vehicle: Klucel (hydroxypropylcellulose) (HPC)) does the source give for Cc1ccc(S(=O)(=O)CN(CN2C(=O)CCC2=O)c2ccc(Cl)cc2)cc1 here?
Its survivor count is 6 of 6.

Which survivor count (dose: 100.0 mg/kg/injection, schedule: Q01DX001 (ip), vehicle: saline with Tween-80) does the source give for O=C1Nc2ccccc2/C1=N/N=c1\scc(-c2ccc(Br)cc2)n1-c1ccc(Cl)cc1 here?
The survivor count was 6 of 6.

And the survivor count (dose: 400.0 mg/kg/injection, schedule: Q01DX001 (ip), vehicle: saline with Tween-80)?
The survivor count was 6 of 6.

For COC(=O)c1nc(N)nc(C(=O)OC)c1C(=O)c1cccs1, which survivor count [9] is on record?
Its survivor count is 0 of 6.

With COc1ccc(CC2c3cc4c(cc3CCN2C)OCO4)c(/C=C\c2ccccc2)c1OC (stereo unspecified) as the molecule, how does the survivor count (dose: 50.0 mg/kg/injection, schedule: Q01DX001 (ip), vehicle: saline + alcohol) read?
Its survivor count is 6 of 6.

What about the survivor count (dose: 100.0 mg/kg/injection, schedule: Q01DX001 (ip), vehicle: saline + alcohol) of the same molecule?
The survivor count was 6 of 6.
